Source: PubChem BioAssay (NCATS)
This list was built around the results that the source calls inconclusive (neither active nor inactive); the mix of calls is not that of the screen. For part of these data: Potencies of inconclusive entries are doubtful fits and often do not repeat. For part of these data: “Side channel” marks fits to a control or component signal instead of the main read-out. Activity calls are given as the source filed them. Unless noted, calls follow the shape of the dose curve; as a rule, active = well fitted curve in the direction sought with a large enough effect; inconclusive = small, poorly fitted or top-dose-only effect, or another doubt; inactive = no such curve, though single readings can be large; an effect the other way counts as inactive or inconclusive.

The chains behind the UniProt entries cited, without tags or fusion partners. Where a name states a change or a piece, a line headed by the entry shows the natural chain unless it says otherwise.
UniProt Q03181: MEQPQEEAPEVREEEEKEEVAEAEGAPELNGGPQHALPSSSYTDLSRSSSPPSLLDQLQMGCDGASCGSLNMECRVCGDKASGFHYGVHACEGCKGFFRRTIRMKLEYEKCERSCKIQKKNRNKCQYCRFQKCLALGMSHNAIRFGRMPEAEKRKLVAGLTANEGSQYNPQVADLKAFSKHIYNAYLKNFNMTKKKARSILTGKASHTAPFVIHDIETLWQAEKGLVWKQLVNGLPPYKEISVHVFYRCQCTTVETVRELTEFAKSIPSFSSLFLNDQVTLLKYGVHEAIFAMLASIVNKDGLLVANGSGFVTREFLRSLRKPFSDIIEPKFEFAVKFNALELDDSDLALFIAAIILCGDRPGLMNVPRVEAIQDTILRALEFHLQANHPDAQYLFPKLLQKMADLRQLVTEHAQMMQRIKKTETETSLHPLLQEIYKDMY
UniProt P08684, whole entry, looked up: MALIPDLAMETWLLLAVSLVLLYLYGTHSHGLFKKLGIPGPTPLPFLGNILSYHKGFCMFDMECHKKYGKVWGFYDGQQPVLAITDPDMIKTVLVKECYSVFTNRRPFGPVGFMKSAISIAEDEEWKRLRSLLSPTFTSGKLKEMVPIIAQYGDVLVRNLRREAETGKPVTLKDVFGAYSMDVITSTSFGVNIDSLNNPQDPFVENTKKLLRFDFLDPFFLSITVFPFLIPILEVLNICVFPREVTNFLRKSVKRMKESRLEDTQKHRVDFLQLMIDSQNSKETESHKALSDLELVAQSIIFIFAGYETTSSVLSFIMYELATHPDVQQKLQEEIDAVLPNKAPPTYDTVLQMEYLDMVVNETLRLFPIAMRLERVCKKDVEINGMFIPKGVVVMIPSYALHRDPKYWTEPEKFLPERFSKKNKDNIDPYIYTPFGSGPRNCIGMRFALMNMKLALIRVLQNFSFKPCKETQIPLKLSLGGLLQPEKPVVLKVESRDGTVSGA
UniProt P10828: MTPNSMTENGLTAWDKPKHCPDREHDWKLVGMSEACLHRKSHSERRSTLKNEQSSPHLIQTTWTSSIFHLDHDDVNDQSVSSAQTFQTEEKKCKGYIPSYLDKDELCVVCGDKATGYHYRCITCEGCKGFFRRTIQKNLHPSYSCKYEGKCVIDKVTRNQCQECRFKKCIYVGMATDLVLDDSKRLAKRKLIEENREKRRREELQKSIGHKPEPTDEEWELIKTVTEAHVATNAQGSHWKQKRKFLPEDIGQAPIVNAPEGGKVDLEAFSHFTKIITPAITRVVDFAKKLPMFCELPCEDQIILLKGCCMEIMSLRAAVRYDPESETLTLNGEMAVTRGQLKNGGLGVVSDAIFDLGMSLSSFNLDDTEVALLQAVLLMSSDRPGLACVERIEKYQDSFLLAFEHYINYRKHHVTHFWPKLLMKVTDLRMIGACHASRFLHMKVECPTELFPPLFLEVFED
UniProt P19793: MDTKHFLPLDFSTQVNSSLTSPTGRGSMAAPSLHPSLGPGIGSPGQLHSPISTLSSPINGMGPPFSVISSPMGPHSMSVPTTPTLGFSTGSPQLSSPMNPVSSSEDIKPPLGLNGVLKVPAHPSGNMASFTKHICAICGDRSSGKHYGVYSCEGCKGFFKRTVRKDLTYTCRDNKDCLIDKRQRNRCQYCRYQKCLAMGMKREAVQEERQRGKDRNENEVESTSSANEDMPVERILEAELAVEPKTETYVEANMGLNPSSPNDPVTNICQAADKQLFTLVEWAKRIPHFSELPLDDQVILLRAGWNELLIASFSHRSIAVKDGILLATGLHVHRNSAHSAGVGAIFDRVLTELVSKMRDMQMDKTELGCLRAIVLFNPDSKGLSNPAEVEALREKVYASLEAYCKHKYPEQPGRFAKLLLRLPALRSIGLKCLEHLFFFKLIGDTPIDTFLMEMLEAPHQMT
UniProt Q07869: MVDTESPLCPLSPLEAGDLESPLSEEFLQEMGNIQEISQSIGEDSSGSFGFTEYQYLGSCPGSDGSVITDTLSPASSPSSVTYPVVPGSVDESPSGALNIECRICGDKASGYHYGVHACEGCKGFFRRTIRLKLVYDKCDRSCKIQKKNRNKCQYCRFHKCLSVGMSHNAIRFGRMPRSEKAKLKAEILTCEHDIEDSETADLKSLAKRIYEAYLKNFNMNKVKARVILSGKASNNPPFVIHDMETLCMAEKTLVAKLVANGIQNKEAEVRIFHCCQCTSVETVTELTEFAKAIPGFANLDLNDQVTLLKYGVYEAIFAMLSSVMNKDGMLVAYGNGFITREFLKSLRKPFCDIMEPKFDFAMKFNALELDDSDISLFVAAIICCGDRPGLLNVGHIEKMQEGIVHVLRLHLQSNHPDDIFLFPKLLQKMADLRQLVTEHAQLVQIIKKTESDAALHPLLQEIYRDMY

Key:
[1] = MultiTox-Fluor Cytotoxicity Assay - LYMP1-001 - Live Cells (AID 947);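 also: 0% = DMSO only and full inhibition = tetraoctylammonium bromide control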
[2] = Cell Viability - LYMP2-013 (AID 970);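 also: 0% = DMSO only and full inhibition = tetraoctylammonium bromide control; nearly all actives have a fitted effect of over 55% in size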
How it was run: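 qHTS; 2500 lymphoblastoid cells/well; 5 hr 37 C settle; cpd 24 hr 37 C; CellTiter-Glo, 30 min RT; luminescence. AC50 = Hill fit.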

[3] = molecular target: Bile acid receptor (Homo sapiens) (UniProt Q96RI1); experiment: qHTS assay for small molecule antagonists of farnesoid X receptor signaling (AID 588526; calls by dose curve; also: potency is read from the fitted curve at half-maximal effect); settings: HEK293T FXR-UAS-bla, beta-lactamase ratio, antagonist mode; activity change, negative = inhibition: at 76.7 µM (top of the series)
How it was run: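 Concentration-response titrations were fitted to the Hill equation for half-maximal inhibition and maximal response, with data normalised to 50 uM chenodeoxycholic acid and DMSO control wells. Cells: FXR-UAS-bla HEK293T, dialyzed FBS.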

[4] = molecular target: Peroxisome proliferator-activated receptor delta (Homo sapiens) (UniProt Q03181); experiment: qHTS assay for small molecule antagonists of peroxisome proliferator-activated receptor delta signaling (AID 588535; active = well fitted inhibition curve with a large enough effect in the signal ratio, with a control signal flat, not every such curve was filed as active; inconclusive = small, poorly fitted or top-dose-only effect, or effect the other way, or a change in a side signal; inactive = no such curve, though single readings can be large or run the other way; the % refers to the signal ratio); settings: HEK293T PPARd-UAS-bla, beta-lactamase FRET ratio, 18 h; activity change, negative = inhibition: at 76.7 µM (top of the series) unless noted
How it was run: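 Reporter: UAS-bla under PPAR-delta response element, HEK293T host. Medium: 2% charcoal/dextran FBS. Dosing: titration, 18 hrs, 37 C. Detection: CCF4, 2 hrs RT, 405 ex/460 and 530 em.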

[5] = molecular target: Peroxisome proliferator-activated receptor gamma (Homo sapiens) (UniProt P37231); experiment: qHTS assay for small molecule antagonists of peroxisome proliferator-activated receptor gamma signaling (AID 588537; active = well fitted inhibition curve with a large enough effect in the signal ratio, with a control signal flat, not every such curve was filed as active; inconclusive = small, poorly fitted or top-dose-only effect, or effect the other way, or a change in a side signal; the % refers to the signal ratio;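 also: reporter cells co-stimulated with 50 nM rosiglitazone agonist during compound treatment; % of control where 0% means no effect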); settings: HEK293 PPARg-UAS-bla, beta-lactamase ratio, antagonist mode; activity, negative = inhibition: at 76.8 µM (top of the series) unless noted
How it was run: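 We seeded GeneBLAzer HEK293 reporter cells at 3000 per well, allowed 6-6.5 h attachment at 37 C, then co-treated with test compound titrations and 50 nM rosiglitazone overnight (16 h). Inhibition was quantified from 460/530 nm emission ratios.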

[6] = qHTS assay for small molecule agonists of the antioxidant response element (ARE) signaling pathway (AID 651741; active = well fitted activation curve with a large enough effect in the signal ratio; inconclusive = small, poorly fitted or top-dose-only effect, or effect the other way, or a change in a side signal; the % refers to the signal ratio; also: potency is read from the fitted curve at half-maximal effect; as to activation: % of control where 0% means no effect); settings: HepG2 ARE-bla reporter, beta-lactamase FRET ratio, 16 h; activation: at 96 µM (top of the series) unless noted
How it was run: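 Compounds in DMSO are pinned onto HepG2 ARE-bla cells (2,000/well) that were preincubated 5 h; plates stay 16 h at 37 C, then beta-lactamase activity is detected with LiveBLAzer B/G substrate by fluorescence.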

[7] = qHTS assay to identify small molecules that stimulate interleukin-8 (IL-8) secretion (AID 651758; active = well fitted activation curve with a large enough effect in the signal ratio; inconclusive = small, poorly fitted or top-dose-only effect, or effect the other way, or a change in a side signal; the % refers to the signal ratio; also: potency is read from the fitted curve at half-maximal effect; as to activation: 0% is about no effect); settings: HTRF ratio (665/615); activation: at 92.2 µM (top of the series)
How it was run: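 THP-1, 2000 cells/well; cpd 16 h, 37 C; add cryptate + XL665 anti-IL-8 Abs; RT 1-3 h; TR-FRET read.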

[8] = qHTS assay for small molecule antagonists of the retinoid-related orphan receptor gamma (ROR-gamma) signaling pathway - cell viability counter screen (AID 720652; active = well fitted curve in the direction sought with a large enough effect in the repeat runs; inconclusive = weak or mixed curves; inactive = no such curve, though single readings can be large; an effect the other way counts as inactive or inconclusive;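 also: compound exposure lasted 16 hr before ATP read; % is scaled to controls: 0 for no effect and ±100 for the full control effect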)
How it was run: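 Luminescence from CellTiter-Glo after 30 min at room temperature reported cellular ATP as the cytotoxicity measure. Cells were the CHO reporter line with doxycycline-induced ROR-gamma expression, exposed to compound for 16 hr at 37 C.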

[9] = qHTS assay for cell viability of HEK293 cells (AID 743288); settings: ATP luminescence (CellTiter-Glo), 18 h; max response: hits give low values; also: % is scaled to controls: 0 for no effect and ±100 for the full control effect; nearly all actives have a fitted effect of over 50% in size
How it was run: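 The Tox21 protocol used parental HEK293 cells treated for 18 h at 37 C with compounds delivered by pintool; ATP-coupled luminescence after 30 min at room temperature gave viability.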

[10] = Cellular Toxicity (caspase-3) BJ (AID 658); settings: BJ fibroblasts, luminescence, normalized: DMSO 0%, staurosporine 100%; at 91.7 µM (top of the series)
How it was run: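 Luminescent aminoluciferin-substrate cleavage reports caspase 3/7 activity in normal human BJ fibroblasts after 16 hr compound exposure at 37 °C. Normalized to DMSO (basal) and 10 uM staurosporine (100%); AC50 from Hill fit of concentration-response.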

[11] = molecular target: Cytochrome P450 3A4 (Homo sapiens) (UniProt P08684); experiment: qHTS Assay for Inhibitors and Substrates of Cytochrome P450 3A4 (AID 884); settings: recombinant CYP3A4, Luciferin-PPXE luminescence; activity change, negative = inhibition: at 57.1 µM (top of the series) unless noted; also: % is scaled to controls: 0 for no effect and ±100 for the full control effect; nearly all actives have a fitted effect of over 50% in size
How it was run: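 20 nM human CYP3A4 with 25 uM Luciferin-PPXE (at KM) in 200 mM KPO4, preincubated 10 min with compound; NADPH regeneration started a 60 min RT reaction. Luciferin detected by luminescence, normalized to 57 uM ketoconazole as full inhibition.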

[12] = Cell Viability - LYMP2-003 (AID 965); settings: LYMP2-003 lymphoblastoid cell viability; activity change, negative = cytotoxicity: at 92.2 µM (top of the series);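 also: cells exposed to compounds for 24 h before reading; nearly all actives have a fitted effect of over 50% in size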; also: potency is read from the fitted curve at half-maximal effect;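 as to activity change, negative = cytotoxicity: 0% = DMSO only and full effect = 92 µM tetraoctylammonium bromide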
How it was run: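 Acute cytotoxicity is scored as a concentration-dependent drop in intracellular ATP, measured by luciferase luminescence in human lymphoblastoid cells treated for 24 hours at 37 C. AC50 values derive from Hill-equation modelling.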

[13] = molecular target: Vitamin D3 receptor (Homo sapiens) (UniProt P11473); experiment: qHTS assay for small molecule antagonists of vitamin D receptor signaling (AID 588541; calls by dose curve;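 also: receptor activated by calcitriol during compound treatment; % is scaled to controls: 0 for no effect and ±100 for the full control effect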); settings: HEK293T VDR-UAS-bla, beta-lactamase ratio, antagonist mode; activity change, negative = inhibition: at 76.7 µM (top of the series)
[14] = molecular target: Thyroid hormone receptor beta (Homo sapiens) (UniProt P10828); experiment: qHTS assay for small molecule antagonists of thyroid hormone receptor beta signaling (AID 588547; active = well fitted inhibition curve with a large enough effect in the signal ratio, with a control signal flat, not every such curve was filed as active; inconclusive = small, poorly fitted or top-dose-only effect, or effect the other way, or a change in a side signal; the % refers to the signal ratio;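 also: cells stimulated with 0.4 nM T3 agonist during compound exposure; % is scaled to controls: 0 for no effect and ±100 for the full control effect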); settings: TR-UAS-bla HEK293, beta-lactamase ratio, antagonist mode, 18 h
How it was run: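 TR-UAS-bla GripTite HEK293 cells in 2% charcoal/dextran FBS medium were preincubated 4 h at 37 C, given compound (0.59 nM to 92 uM) plus 0.4 nM T3 (final) for 18 h, then CCF4 for 2 h at RT; Hill fit gave IC50.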

[15] = Cell Viability - LYMP2-005 (AID 967);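 also: plate controls were DMSO only for no effect and 92 µM tetraoctylammonium bromide control for full effect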
How it was run: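 qHTS viability screen in LYMP2-005 cells: 24 h at 37 C with compound, ATP luminescence via CellTiter-Glo, AC50 from Hill curves.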

[16] = Cell Viability - LYMP2-022 (AID 987);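 also: 0% = DMSO alone and full effect = tetraoctylammonium bromide at 92 µM; nearly all actives have a fitted effect of over 55% in size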
How it was run: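 qHTS: human lymphoblastoid cells 2500/well; 5 hr 37 C; cpd added; 24 hr 37 C; CellTiter-Glo, 30 min RT; luminescence. AC50 via Hill fit; tetraoctylammonium bromide positive ctrl.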

[17] = molecular target: Retinoic acid receptor RXR-alpha (Homo sapiens) (UniProt P19793); experiment: qHTS assay for small molecule agonists of retinoid X receptor alpha signaling (AID 588544; calls by dose curve;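 also: 0% = DMSO basal wells and 100% = reference agonist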); settings: HEK293T RXRa-UAS-bla, beta-lactamase reporter, 18 h; activation: at 76.7 µM (top of the series)
[18] = molecular target: Retinoic acid receptor RXR-alpha (Homo sapiens) (UniProt P19793); experiment: qHTS assay for small molecule antagonists of retinoid X receptor alpha signaling (AID 588546; active = well fitted inhibition curve with a large enough effect in the signal ratio, with a control signal flat, not every such curve was filed as active; inconclusive = small, poorly fitted or top-dose-only effect, or effect the other way, or a change in a side signal; inactive = no such curve, though single readings can be large or run the other way; the % refers to the signal ratio;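 also: cells stimulated with 9-cis-retinoic acid as agonist; % is scaled to controls: 0 for no effect and ±100 for the full control effect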); settings: HEK293T RXRa-UAS-bla, beta-lactamase ratio, antagonist mode
How it was run: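 Beta-lactamase reporter inhibition, read as CCF4 fluorescence ratio (ex 405, em 460/530 nm) after 2 h at RT. HEK293T UAS-bla cells, 2500/well, were stimulated with 9-cis-RA at 500 or 100 nM final alongside test compound for 18 h at 37 C.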

[19] = Cell Viability - LYMP2-004 (AID 966); settings: LYMP2-004 lymphoblastoid cell viability, qHTS; activity change, negative = cytotoxicity: at 92.2 µM (top of the series);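 also: plate controls were DMSO only for no effect and tetraoctylammonium bromide control for full effect; nearly all actives have a fitted effect of over 65% in size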
How it was run: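 Cells seeded 2500/well, rested 5 hr at 37 C, dosed across a concentration series, incubated 24 hr at 37 C, then CellTiter-Glo added for 30 min at room temperature and luminescence read. Hill fitting gave AC50.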

[20] = Cell Viability - LYMP2-021 (AID 974);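 also: compound exposure lasts 24 hours at 37 °C; % is scaled to controls: 0 for no effect and ±100 for the full control effect; nearly all actives have a fitted effect of over 55% in size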
How it was run: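 Plate 2500 lymphoblastoid cells per well and incubate 5 hr at 37 C. Add compounds over a concentration range and incubate 24 hr at 37 C. Add CellTiter-Glo, wait 30 min at room temperature, read luminescence.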

[21] = molecular target: Glucocorticoid receptor (Homo sapiens) (UniProt P04150); experiment: qHTS assay for small molecule agonists of glucocorticoid receptor signaling (AID 588532; active = well fitted curve in the direction sought with a large enough effect in the signal ratio, with a control signal flat; inconclusive = small, poorly fitted or top-dose-only effect, or a change in a side signal; inactive = no such curve, though single readings can be large or run the other way; the % refers to the signal ratio; also: potency is read from the fitted curve at half-maximal effect); settings: HeLa MMTV-bla, beta-lactamase ratio, agonist, 18 h; activation: hits give high values, percent of dexamethasone control, DMSO zero
How it was run: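 MMTV-bla HeLa, beta-lactamase reporter; medium with 1% charcoal/dextran-stripped FBS; cpds up to 92 uM, 18 h, 37 C; CCF4 readout 460/530 nm; Hill fit → EC50, efficacy vs 0.1 uM dexamethasone = 100%.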

[22] = molecular target: Glucocorticoid receptor (Homo sapiens) (UniProt P04150); experiment: qHTS assay for small molecule antagonists of glucocorticoid receptor signaling (AID 588533; active = well fitted inhibition curve with a large enough effect in the signal ratio, with a control signal flat, not every such curve was filed as active; inconclusive = small, poorly fitted or top-dose-only effect, or effect the other way, or a change in a side signal; the % refers to the signal ratio); settings: HeLa MMTV-bla, GRE beta-lactamase ratio, antagonist mode, 18 h; activity change, negative = inhibition: at 76.8 µM (top of the series)
[23] = molecular target: Peroxisome proliferator-activated receptor delta (Homo sapiens) (UniProt Q03181); experiment: qHTS assay for small molecule agonists of peroxisome proliferator-activated receptor delta signaling (AID 588534; calls by dose curve; also: potency is read from the fitted curve at half-maximal effect); settings: HEK293T PPARdelta-UAS-bla, beta-lactamase ratio, 18 h; activation: at 76.7 µM (top of the series) unless noted
How it was run: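 Fluorescence from CCF4 substrate cleavage by beta-lactamase reporter, read 2 hrs at RT, measured agonist activity. Compounds were tested with 18 hrs exposure at 37 C. Concentration-response data fitted to Hill equation.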

[24] = molecular target: Peroxisome proliferator-activated receptor gamma (Homo sapiens) (UniProt P37231); experiment: qHTS assay for small molecule agonists of peroxisome proliferator-activated receptor gamma signaling (AID 588536; active = well fitted curve in the direction sought with a large enough effect in the signal ratio, with a control signal flat, not every such curve was filed as active; inconclusive = small, poorly fitted or top-dose-only effect, or effect the other way, or a change in a side signal; inactive = no such curve, though single readings can be large or run the other way; the % refers to the signal ratio;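 also: 0% = DMSO basal wells and 100% = rosiglitazone at 2 µM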); settings: HEK293 PPARg-UAS-bla, beta-lactamase ratio, 16 h; activation: at 76.7 µM (top of the series), percent of rosiglitazone response, DMSO as zero
How it was run: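 GeneBLAzer PPAR-gamma-UAS-bla HEK293 cells in 1% charcoal/dextran-treated FBS medium were treated 16 h at 37 C with compounds. Beta-lactamase activity was read by CCF4 ratio (460/530 nm). Response was normalized to 2 uM rosiglitazone (100%) and DMSO, then Hill-fitted for EC50 and efficacy.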

[25] = molecular target: Vitamin D3 receptor (Homo sapiens) (UniProt P11473); experiment: qHTS assay for small molecule agonists of vitamin D receptor signaling (AID 588543; calls by dose curve; also: potency is read from the fitted curve at half-maximal effect); settings: HEK293T VDR-UAS-bla, beta-lactamase ratio, 16 h; activation: at 76.8 µM (top of the series)
How it was run: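 qHTS in agonist mode: compound titrations stimulate a VDR-driven β-lactamase reporter in HEK293T cells over 16 h at 37 °C. Response normalized to 50 nM 1α,25-dihydroxyvitamin D3 = 100%, DMSO = 0%; Hill fitting gives EC50 and maximal response.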

[26] = molecular target: Peroxisome proliferator-activated receptor alpha (Homo sapiens) (UniProt Q07869); experiment: qHTS assay for small molecule agonists of the peroxisome proliferator-activated receptor alpha (PPARalpha) signaling pathway (AID 651778); settings: PathHunter PPARalpha complementation, chemiluminescence, 6 h; max response: hits give high values; also: potency is read from the fitted curve at half-maximal effect
How it was run: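 Cells plated at 2,000/well and held overnight at 37 C, 5% CO2, then compound added by pin tool for 6 hr; after PathHunter detection reagent and 60 min at room temperature, chemiluminescence from enzyme complementation was read.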

Nc1cccc(O)c1
inactive: Potency [1] | Potency [2] | Potency [4] | Potency [8] | max response [9] 2.15%
inconclusive: Potency [3] 0.0007 µM [fluorescent, side channel, full curve, poor fit] | activity, negative = inhibition [5] -6.91% | activation [6] 9.97% | activation [7] -9.62%

CCCCOCC(C)OCC(C)O (stereo not drawn)
inconclusive: activation [6] -2.84%
inactive: Potency [3] | Potency [5]

Nc1cnn([C@@H]2O[C@H](CO)[C@@H](O)[C@H]2O)c(=O)n1
inactive: caspase-3 activation [10] -0.626% | Potency [11] | Potency [13] | Potency [6]
active: Potency [3] 25.1 µM | Potency [7] 75 µM
inconclusive: Potency [12] 50.1 µM [rising, partial curve, poor fit] | activity change, negative = inhibition [4] -27% | activity change % (negative = inhibition) [14] -0.648%

c1ccc2[nH]cnc2c1
inactive: Potency [15] | Potency [16] | Potency [3] | Potency [5] | Potency [17] | Potency [8]
inconclusive: activity change, negative = inhibition [4] -9.98% | max response [18] -6.11% | activation [6] 13.2% | activation [7] -9.6%

O=C1CCC(=O)O1
inconclusive: Potency [21] 63.1 nM [side channel, falling, full curve, poor fit] | activity, negative = inhibition [5] 5.39% | activation [7] 4.89%
inactive: Potency [12] | Potency [19] | Potency [20] | Potency [6] | max response [9] -3.25%

CCCCCCCCCCCC(=O)N(C)CC(=O)O
inconclusive: activity change, negative = inhibition [22] -8.34% | Potency [23] 44.7 µM [activator, partial curve] | activity change, negative = inhibition [4] 4.01% | activation [24] 24.6% | activity, negative = inhibition [5] -38.3% | activity change, negative = inhibition [13] 14.4% | Potency [25] 39.8 µM [side channel, rising, partial curve] | Potency [6] 68.6 µM [activator, single point] | Potency [26] 39.8 µM [activator, partial curve]
